Binding data for 2 molecules are collected here from paper PMC10589262.

By UniProt entry, the sequences of proteins in these tests, tags left out. Where a name states a change or a piece, a line headed by the entry shows the natural chain unless it says otherwise. Chains listed by the source or under a name are the forms on record and can include a tag or linker.
Mutant KIT (MT-KIT) of GIST882 cells (homozygous exon 13 K642E point mutation) (human (endogenous in GIST882)) (P10721, form named): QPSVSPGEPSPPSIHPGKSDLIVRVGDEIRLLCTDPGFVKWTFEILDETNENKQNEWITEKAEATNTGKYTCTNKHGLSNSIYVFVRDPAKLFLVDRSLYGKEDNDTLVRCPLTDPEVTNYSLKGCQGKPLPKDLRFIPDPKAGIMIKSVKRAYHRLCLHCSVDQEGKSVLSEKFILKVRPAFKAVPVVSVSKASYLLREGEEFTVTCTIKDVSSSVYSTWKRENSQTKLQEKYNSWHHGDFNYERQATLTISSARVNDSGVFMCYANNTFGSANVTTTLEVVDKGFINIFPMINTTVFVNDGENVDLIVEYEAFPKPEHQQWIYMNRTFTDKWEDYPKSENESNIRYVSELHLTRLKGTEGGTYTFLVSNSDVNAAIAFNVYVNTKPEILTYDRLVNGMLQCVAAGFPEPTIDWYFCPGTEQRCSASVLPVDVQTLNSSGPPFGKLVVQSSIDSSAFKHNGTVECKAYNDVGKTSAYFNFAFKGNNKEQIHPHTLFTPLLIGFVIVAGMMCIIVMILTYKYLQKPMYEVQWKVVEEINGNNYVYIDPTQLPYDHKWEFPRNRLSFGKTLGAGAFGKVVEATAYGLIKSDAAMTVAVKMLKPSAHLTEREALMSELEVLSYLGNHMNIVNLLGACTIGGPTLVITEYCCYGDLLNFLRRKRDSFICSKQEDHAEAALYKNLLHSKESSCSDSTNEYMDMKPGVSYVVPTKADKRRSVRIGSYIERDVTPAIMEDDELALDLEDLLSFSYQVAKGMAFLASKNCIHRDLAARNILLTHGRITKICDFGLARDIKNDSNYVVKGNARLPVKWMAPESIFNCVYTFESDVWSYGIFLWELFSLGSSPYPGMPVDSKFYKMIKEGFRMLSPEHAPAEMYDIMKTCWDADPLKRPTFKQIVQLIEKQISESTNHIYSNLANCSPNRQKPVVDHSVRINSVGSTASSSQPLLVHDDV
UniProt P62993: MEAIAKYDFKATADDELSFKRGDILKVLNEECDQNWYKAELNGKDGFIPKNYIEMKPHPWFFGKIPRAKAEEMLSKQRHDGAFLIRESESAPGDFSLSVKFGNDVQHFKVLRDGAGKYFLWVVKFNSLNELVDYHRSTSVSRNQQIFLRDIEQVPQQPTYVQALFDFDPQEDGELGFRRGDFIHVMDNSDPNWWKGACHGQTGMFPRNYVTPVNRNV

Assay [1] has as its target Mutant KIT (MT-KIT) of GIST882 cells (homozygous exon 13 K642E point mutation) (human (endogenous in GIST882)) (UniProt P10721). As to the kind of experiment: co-IP; 500 µg of GIST cell lysate mixed with a KIT antibody (Cell Signaling Technology) or control IgG and protein A/G PLUS-Agarose, 4 °C overnight; washed, eluted by boiling; western blot of endogenous partners. A general note: A western blot detects proteins with antibodies after separation by electrophoresis.

Assay [2] has the same target. Described as above. The source holds these as a separate data set.

Where two headings read alike, the source gives them in different places. These are yes or no findings as the source states them, for the method shown. Binding seen in cells or lysates may run through a third protein. Some binding calls cover weakened binding; strength is not graded here.

On to GRB2 (from UniProt P62993 1-217), for which, in assay [1], the binding entry was “binds”.

B1: Basic leucine zipper nuclear factor 1 (BLZF1) (protein, UniProt Q9H2G9 1-400)
chain: MTTKNLETKVTVTSSPIRGAGDGMETEEPPKSVEVTSGVQSRKHHSLQSPWKKAVPSESPGVLQLGKMLTEKAMEVKAVRILVPKAAITHDIPNKNTKVKSLGHHKGEFLGQSEGVIEPNKELSEVKNVLEKLKNSERRLLQDKEGLSNQLRVQTEVNRELKKLLVASVGDDLQYHFERLAREKNQLILENEALGRNTAQLSEQLERMSIQCDVWRSKFLASRVMADELTNSRAALQRQNRDAHGAIQDLLSEREQFRQEMIATQKLLEELLVSLQWGREQTYSPSVQPHSTAELALTNHKLAKAVNSHLLGNVGINNQKKIPSTVEFCSTPAEKMAETVLRILDPVTCKESSPDNPFFESSPTTLLATKKNIGRFHPYTRYENITFNCCNHCRGELIAL
For B1, the binding result in assay [2] is listed as “binds”.
